PubChem BioAssay AID1904, GNF | 2009
Screen: 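Novel clock parts and modifiers of the cell-autonomous circadian rhythm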 (follow-up of hits). Cells: human U2OS osteosarcoma cells stably expressing a destabilised luciferase driven by the Bmal1 promoter. Knock-down reagent: siRNA pair against human genes, 12.5 nM (two siRNAs, 0.5 pmol each, per well). Duration: about 3 days after transfection, then luminescence recorded for about 4 days. Measurement: 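Period and amplitude fitted from detrended luminescence traces taken every 2 hours; duplicate wells averaged, compared with the screen mean and grouped into phenotype classes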. Rule for the call: 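Active when retesting with individual siRNAs reproduced the period or amplitude change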. Meaning of the calls: active = confirmed by single siRNAs; inactive = not confirmed.
Only reagents picked out of a larger screen are listed. 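Lists only primary-screen hits; phenotype classes come from fitted traces, and the underlying luminescence values are not given.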

| target | PubChem SID | clock phenotype class | confirmed with single siRNAs | call |
| --- | --- | --- | --- | --- |
| MGC2941 | SID85103748 | longer clock period; seen with two independent siRNA pairs for the gene | phenotype reproduced by individual siRNAs | active |
| MGC2941 | SID85110971 | longer clock period; seen with two independent siRNA pairs for the gene | phenotype reproduced by individual siRNAs | active |
| TNK2 | SID85105827 | longer clock period; seen with two independent siRNA pairs for the gene | phenotype reproduced by individual siRNAs | active |
| TNK2 | SID85113050 | longer clock period; seen with two independent siRNA pairs for the gene | phenotype reproduced by individual siRNAs | active |
| RAP1GA1 | SID85114314 | longer clock period; seen with two independent siRNA pairs for the gene | phenotype reproduced by individual siRNAs | active |
| RAP1GA1 | SID85125138 | longer clock period; seen with two independent siRNA pairs for the gene | phenotype reproduced by individual siRNAs | active |
| CSNK1E | SID85105468 | longer clock period; seen with two independent siRNA pairs for the gene | phenotype reproduced by individual siRNAs | active |
| CSNK1E | SID85112691 | longer clock period; seen with two independent siRNA pairs for the gene | phenotype reproduced by individual siRNAs | active |
| UBAP2 | SID85123489 | longer clock period; seen with two independent siRNA pairs for the gene | phenotype reproduced by individual siRNAs | active |
| PNRC2 | SID85103389 | longer clock period; seen with two independent siRNA pairs for the gene | phenotype reproduced by individual siRNAs | active |
| PNRC2 | SID85110612 | longer clock period; seen with two independent siRNA pairs for the gene | phenotype reproduced by individual siRNAs | active |
| CGI-63 | SID85103048 | shorter clock period; seen with one siRNA pair in duplicate wells | not retested with individual siRNAs | – |
| CGI-63 | SID85110271 | shorter clock period; seen with one siRNA pair in duplicate wells | not retested with individual siRNAs | – |
| PIK3R5 | SID85105880 | longer clock period; seen with two independent siRNA pairs for the gene | phenotype reproduced by individual siRNAs | active |
| PIK3R5 | SID85113103 | longer clock period; seen with two independent siRNA pairs for the gene | phenotype reproduced by individual siRNAs | active |
| FLJ45645 | SID85121920 | longer clock period; seen with two independent siRNA pairs for the gene | phenotype reproduced by individual siRNAs | active |
| JAZF1 | SID85104301 | longer clock period; seen with two independent siRNA pairs for the gene | phenotype reproduced by individual siRNAs | active |
| JAZF1 | SID85111524 | longer clock period; seen with two independent siRNA pairs for the gene | phenotype reproduced by individual siRNAs | active |
| NMNAT1 | SID85118172 | higher rhythm amplitude; seen with one siRNA pair in duplicate wells | phenotype reproduced by individual siRNAs | active |
| NMNAT1 | SID85128996 | higher rhythm amplitude; seen with one siRNA pair in duplicate wells | phenotype reproduced by individual siRNAs | active |
| SLC3A1 | SID85101106 | longer clock period; seen with two independent siRNA pairs for the gene | phenotype reproduced by individual siRNAs | active |
| SLC3A1 | SID85108329 | longer clock period; seen with two independent siRNA pairs for the gene | phenotype reproduced by individual siRNAs | active |
| UBE1C | SID85122788 | longer clock period; seen with two independent siRNA pairs for the gene | phenotype reproduced by individual siRNAs | active |
| MKL1 | SID85117886 | longer clock period; seen with two independent siRNA pairs for the gene | phenotype reproduced by individual siRNAs | active |
| MKL1 | SID85128710 | longer clock period; seen with two independent siRNA pairs for the gene | phenotype reproduced by individual siRNAs | active |
| VPS4A | SID85116264 | longer clock period; seen with two independent siRNA pairs for the gene | phenotype not reproduced by individual siRNAs | inconclusive |
| VPS4A | SID85127088 | longer clock period; seen with two independent siRNA pairs for the gene | phenotype not reproduced by individual siRNAs | inconclusive |
| PTGER3 | SID85104901 | longer clock period; seen with two independent siRNA pairs for the gene | phenotype reproduced by individual siRNAs | active |
| PTGER3 | SID85104941 | longer clock period; seen with two independent siRNA pairs for the gene | phenotype reproduced by individual siRNAs | active |
| PTGER3 | SID85112124 | longer clock period; seen with two independent siRNA pairs for the gene | phenotype reproduced by individual siRNAs | active |
| PTGER3 | SID85112164 | longer clock period; seen with two independent siRNA pairs for the gene | phenotype reproduced by individual siRNAs | active |
| KIAA1414 | SID85116836 | shorter clock period; seen with two independent siRNA pairs for the gene | phenotype reproduced by individual siRNAs | active |
| KIAA1414 | SID85127660 | shorter clock period; seen with two independent siRNA pairs for the gene | phenotype reproduced by individual siRNAs | active |
| PARD6A | SID85102943 | longer clock period; seen with two independent siRNA pairs for the gene | phenotype reproduced by individual siRNAs | active |
| PARD6A | SID85110166 | longer clock period; seen with two independent siRNA pairs for the gene | phenotype reproduced by individual siRNAs | active |
| CMYA4 | SID85120546 | longer clock period; seen with two independent siRNA pairs for the gene | phenotype reproduced by individual siRNAs | active |
| CMYA4 | SID85131370 | longer clock period; seen with two independent siRNA pairs for the gene | phenotype reproduced by individual siRNAs | active |
| SELO | SID85119091 | shorter clock period; seen with two independent siRNA pairs for the gene | phenotype reproduced by individual siRNAs | active |
| SELO | SID85129915 | shorter clock period; seen with two independent siRNA pairs for the gene | phenotype reproduced by individual siRNAs | active |
| PPP1R2P9 | SID85105228 | shorter clock period; seen with two independent siRNA pairs for the gene | not retested with individual siRNAs | – |
| PPP1R2P9 | SID85112451 | shorter clock period; seen with two independent siRNA pairs for the gene | not retested with individual siRNAs | – |
| RABGEF1 | SID85116352 | longer clock period; seen with two independent siRNA pairs for the gene | phenotype reproduced by individual siRNAs | active |
| RABGEF1 | SID85127176 | longer clock period; seen with two independent siRNA pairs for the gene | phenotype reproduced by individual siRNAs | active |
| FBXO45 | SID85104172 | longer clock period; seen with two independent siRNA pairs for the gene | phenotype reproduced by individual siRNAs | active |
| FBXO45 | SID85111395 | longer clock period; seen with two independent siRNA pairs for the gene | phenotype reproduced by individual siRNAs | active |
| BMP4 | SID85099134 | longer clock period; seen with two independent siRNA pairs for the gene | phenotype reproduced by individual siRNAs | active |
| BMP4 | SID85106357 | longer clock period; seen with two independent siRNA pairs for the gene | phenotype reproduced by individual siRNAs | active |
| ABL1 | SID85105330 | shorter clock period; seen with two independent siRNA pairs for the gene | phenotype reproduced by individual siRNAs | active |
| ABL1 | SID85112553 | shorter clock period; seen with two independent siRNA pairs for the gene | phenotype reproduced by individual siRNAs | active |
| LBX1 | SID85115519 | shorter clock period; seen with two independent siRNA pairs for the gene | phenotype reproduced by individual siRNAs | active |
| LBX1 | SID85126343 | shorter clock period; seen with two independent siRNA pairs for the gene | phenotype reproduced by individual siRNAs | active |
| RAB20 | SID85103231 | longer clock period; seen with two independent siRNA pairs for the gene | phenotype reproduced by individual siRNAs | active |
| RAB20 | SID85110454 | longer clock period; seen with two independent siRNA pairs for the gene | phenotype reproduced by individual siRNAs | active |
| GPR37L1 | SID85104898 | longer clock period; seen with two independent siRNA pairs for the gene | phenotype reproduced by individual siRNAs | active |
| GPR37L1 | SID85112121 | longer clock period; seen with two independent siRNA pairs for the gene | phenotype reproduced by individual siRNAs | active |
| SFN | SID85100025 | higher rhythm amplitude; seen with one siRNA pair in duplicate wells | phenotype not reproduced by individual siRNAs | inconclusive |
| SFN | SID85107248 | higher rhythm amplitude; seen with one siRNA pair in duplicate wells | phenotype not reproduced by individual siRNAs | inconclusive |
| HGFAC | SID85100154 | shorter clock period; seen with one siRNA pair in duplicate wells | phenotype reproduced by individual siRNAs | active |
| HGFAC | SID85107377 | shorter clock period; seen with one siRNA pair in duplicate wells | phenotype reproduced by individual siRNAs | active |
| SLC24A3 | SID85103449 | longer clock period; seen with two independent siRNA pairs for the gene | phenotype reproduced by individual siRNAs | active |
| SLC24A3 | SID85110672 | longer clock period; seen with two independent siRNA pairs for the gene | phenotype reproduced by individual siRNAs | active |
| LHX1 | SID85113959 | longer clock period; seen with two independent siRNA pairs for the gene | phenotype reproduced by individual siRNAs | active |
| LHX1 | SID85124783 | longer clock period; seen with two independent siRNA pairs for the gene | phenotype reproduced by individual siRNAs | active |
| FLJ10350 | SID85117479 | higher rhythm amplitude; seen with one siRNA pair in duplicate wells | phenotype reproduced by individual siRNAs | active |
| FLJ10350 | SID85128303 | higher rhythm amplitude; seen with one siRNA pair in duplicate wells | phenotype reproduced by individual siRNAs | active |
| BTC | SID85099182 | higher rhythm amplitude; seen with one siRNA pair in duplicate wells | phenotype not reproduced by individual siRNAs | inconclusive |
| BTC | SID85106405 | higher rhythm amplitude; seen with one siRNA pair in duplicate wells | phenotype not reproduced by individual siRNAs | inconclusive |
| CXorf15 | SID85117775 | longer clock period; seen with two independent siRNA pairs for the gene | phenotype reproduced by individual siRNAs | active |
| CXorf15 | SID85128599 | longer clock period; seen with two independent siRNA pairs for the gene | phenotype reproduced by individual siRNAs | active |
| PKP1 | SID85100827 | longer clock period; seen with two independent siRNA pairs for the gene | phenotype reproduced by individual siRNAs | active |
| PKP1 | SID85108050 | longer clock period; seen with two independent siRNA pairs for the gene | phenotype reproduced by individual siRNAs | active |
| MRGPRE | SID85103861 | longer clock period; seen with two independent siRNA pairs for the gene | phenotype reproduced by individual siRNAs | active |
| MRGPRE | SID85111084 | longer clock period; seen with two independent siRNA pairs for the gene | phenotype reproduced by individual siRNAs | active |
| JUND | SID85100427 | longer clock period; seen with two independent siRNA pairs for the gene | phenotype reproduced by individual siRNAs | active |
| JUND | SID85107650 | longer clock period; seen with two independent siRNA pairs for the gene | phenotype reproduced by individual siRNAs | active |
| DGKQ | SID85105491 | longer clock period; seen with two independent siRNA pairs for the gene | phenotype reproduced by individual siRNAs | active |
| DGKQ | SID85112714 | longer clock period; seen with two independent siRNA pairs for the gene | phenotype reproduced by individual siRNAs | active |
| DCLRE1A | SID85101969 | longer clock period; seen with two independent siRNA pairs for the gene | phenotype reproduced by individual siRNAs | active |
| DCLRE1A | SID85109192 | longer clock period; seen with two independent siRNA pairs for the gene | phenotype reproduced by individual siRNAs | active |
| THRAP6 | SID85104030 | longer clock period; seen with two independent siRNA pairs for the gene | phenotype reproduced by individual siRNAs | active |
| THRAP6 | SID85111253 | longer clock period; seen with two independent siRNA pairs for the gene | phenotype reproduced by individual siRNAs | active |
| MGC31963 | SID85119664 | higher rhythm amplitude; seen with two independent siRNA pairs for the gene | phenotype reproduced by individual siRNAs | active |
| MGC31963 | SID85130488 | higher rhythm amplitude; seen with two independent siRNA pairs for the gene | phenotype reproduced by individual siRNAs | active |
| CKAP1 | SID85113477 | shorter clock period; seen with one siRNA pair in duplicate wells | phenotype reproduced by individual siRNAs | active |
| CKAP1 | SID85124301 | shorter clock period; seen with one siRNA pair in duplicate wells | phenotype reproduced by individual siRNAs | active |

10 of these entries in another layout:
{"target": "BMP4", "PubChem SID": "SID85099134", "clock phenotype class": "longer clock period; seen with two independent siRNA pairs for the gene", "confirmed with single siRNAs": "phenotype reproduced by individual siRNAs", "call": "active"}
{"target": "BMP4", "PubChem SID": "SID85106357", "clock phenotype class": "longer clock period; seen with two independent siRNA pairs for the gene", "confirmed with single siRNAs": "phenotype reproduced by individual siRNAs", "call": "active"}
{"target": "ABL1", "PubChem SID": "SID85105330", "clock phenotype class": "shorter clock period; seen with two independent siRNA pairs for the gene", "confirmed with single siRNAs": "phenotype reproduced by individual siRNAs", "call": "active"}
{"target": "ABL1", "PubChem SID": "SID85112553", "clock phenotype class": "shorter clock period; seen with two independent siRNA pairs for the gene", "confirmed with single siRNAs": "phenotype reproduced by individual siRNAs", "call": "active"}
{"target": "LBX1", "PubChem SID": "SID85115519", "clock phenotype class": "shorter clock period; seen with two independent siRNA pairs for the gene", "confirmed with single siRNAs": "phenotype reproduced by individual siRNAs", "call": "active"}
{"target": "LBX1", "PubChem SID": "SID85126343", "clock phenotype class": "shorter clock period; seen with two independent siRNA pairs for the gene", "confirmed with single siRNAs": "phenotype reproduced by individual siRNAs", "call": "active"}
{"target": "RAB20", "PubChem SID": "SID85103231", "clock phenotype class": "longer clock period; seen with two independent siRNA pairs for the gene", "confirmed with single siRNAs": "phenotype reproduced by individual siRNAs", "call": "active"}
{"target": "RAB20", "PubChem SID": "SID85110454", "clock phenotype class": "longer clock period; seen with two independent siRNA pairs for the gene", "confirmed with single siRNAs": "phenotype reproduced by individual siRNAs", "call": "active"}
{"target": "GPR37L1", "PubChem SID": "SID85104898", "clock phenotype class": "longer clock period; seen with two independent siRNA pairs for the gene", "confirmed with single siRNAs": "phenotype reproduced by individual siRNAs", "call": "active"}
{"target": "GPR37L1", "PubChem SID": "SID85112121", "clock phenotype class": "longer clock period; seen with two independent siRNA pairs for the gene", "confirmed with single siRNAs": "phenotype reproduced by individual siRNAs", "call": "active"}
